Results are given in words; binding and its absence hold for the method and conditions named. In cells and extracts the contact can be indirect. Some binding calls cover weakened binding; strength is not graded here. For some assays here: Tags and fused reporters may be left off the sequences shown.
Assays:
[1] = target: RFP-TIP60 (WT) (human) (UniProt Q92993); experiment: co-IP; TIP60 antibody and protein-A Sepharose beads, overnight at 4 °C; lysates of transfected Cos-1 cells under control or wound-generated conditions; lysis buffer 20 mM Tris pH 8.0, 2 mM EDTA, 150 mM NaCl, 0.5% Triton X 100, 0.1% SDS; Western blot with TIP60, PXR and core histone antibodies
[2] = target: endogenous TIP60 (human (endogenous in HepG2)) (UniProt Q92993); experiment: co-IP; endogenous TIP60 precipitated with TIP60 antibody and protein-A Sepharose beads from HepG2 cells, normal and 24 h after wound generation; lysis buffer 20 mM Tris pH 8.0, 2 mM EDTA, 150 mM NaCl, 0.5% Triton X 100, 0.1% SDS; Western blot of the endogenous proteins pulled down

By UniProt entry, the sequences of proteins in these tests, tags left out.
UniProt Q92993: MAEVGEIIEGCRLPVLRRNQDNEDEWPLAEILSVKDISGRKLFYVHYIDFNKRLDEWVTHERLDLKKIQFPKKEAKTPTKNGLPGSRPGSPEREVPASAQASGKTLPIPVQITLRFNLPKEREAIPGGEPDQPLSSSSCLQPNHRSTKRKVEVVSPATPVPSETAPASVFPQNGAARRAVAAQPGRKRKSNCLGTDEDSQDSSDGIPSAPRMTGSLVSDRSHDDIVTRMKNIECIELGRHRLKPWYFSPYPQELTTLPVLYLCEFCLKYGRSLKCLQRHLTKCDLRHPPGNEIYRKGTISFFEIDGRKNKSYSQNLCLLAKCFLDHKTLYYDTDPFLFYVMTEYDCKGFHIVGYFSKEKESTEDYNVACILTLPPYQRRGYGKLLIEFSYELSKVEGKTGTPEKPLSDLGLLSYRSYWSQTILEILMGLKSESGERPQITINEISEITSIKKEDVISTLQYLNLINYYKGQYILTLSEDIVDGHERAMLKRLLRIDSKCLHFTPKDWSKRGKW

binding [1]	binding [2]	Binder
binds	–	GFP-PXR (WT) (receptor, UniProt O75469 1-434) MEVRPKESWNHADFVHCEDTESVPGKPSVNADEEVGGPQICRVCGDKATGYHFNVMTCEGCKGFFRRAMKRNARLRCPFRKGACEITRKTRRQCQACRLRKCLESGMKKEMIMSDEAVEERRALIKRKKSERTGTQPLGVQGLTEEQRMMIRELMDAQMKTFDTTFSHFKNFRLPGVLSSGCELPESLQAPSREEAAKWSQVRKDLCSLKVSLQLRGEDGSVWNYKPPADSGGKEIFSLLPHMADMSTYMFKGIISFAKVISYFRDLPIEDQISLLKGAAFELCQLRFNTVFNAETGTWECGRLSYCLEDTAGGFQQLLLEPMLKFHYMLKKLQLHEEEYVLMQAISLFSPDRPGVLQHRVVDQLQEQFAITLKSYIECNRPQPAHRFLFLKIMAMLTELRSINAQHTQRLLRIQDIHPFATPLMQELFGITGS
–	binds	endogenous PXR (receptor, UniProt O75469 1-434) MEVRPKESWNHADFVHCEDTESVPGKPSVNADEEVGGPQICRVCGDKATGYHFNVMTCEGCKGFFRRAMKRNARLRCPFRKGACEITRKTRRQCQACRLRKCLESGMKKEMIMSDEAVEERRALIKRKKSERTGTQPLGVQGLTEEQRMMIRELMDAQMKTFDTTFSHFKNFRLPGVLSSGCELPESLQAPSREEAAKWSQVRKDLCSLKVSLQLRGEDGSVWNYKPPADSGGKEIFSLLPHMADMSTYMFKGIISFAKVISYFRDLPIEDQISLLKGAAFELCQLRFNTVFNAETGTWECGRLSYCLEDTAGGFQQLLLEPMLKFHYMLKKLQLHEEEYVLMQAISLFSPDRPGVLQHRVVDQLQEQFAITLKSYIECNRPQPAHRFLFLKIMAMLTELRSINAQHTQRLLRIQDIHPFATPLMQELFGITGS

Source: PMC9249863
